Experimental data: paper PMC7468108 (Communications Biology, 2020)
Further values from the same series stand in other lists.

Sequences of proteins named here, by UniProt entry; tags and fusion partners are left off. Residues count along the entry.
UniProt P05067, 672-713 limits assumed: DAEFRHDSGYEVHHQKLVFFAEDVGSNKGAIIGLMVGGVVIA

How the values were obtained:
[1] = biological target: T1, pre-formed fibrils of Aβ42 (Homo sapiens, UniProt P05067); assay: CD spectroscopy of pre-formed Aβ42 fibrils with the tested molecules; details: Aβ42 (10 µM) : molecule 1:5
T1 construct: purchased rPeptide (USA)
Experimental: For efficient treatment of proteinopathies it may be advantageous to disassemble amyloid aggregates/fibrils which are usually already present at the time of diagnosis[75]–[77]. […] Then, various doses of the hybrid molecules were added to the pre-formed fibrils and the mixtures were incubated for additional 10 h. The process of disaggregation was monitored by ThT-binding assay, CD spectroscopy, TEM and Congo red staining (Fig. 5).
(§1) The blank was subtracted from the acquired CD spectra. For the CD study in the presence of the tryptophan-galacosylamine molecules, the spectra of hybrid molecules were also recorded separately and subtracted from the respective sample spectra. The normalized data were plotted using Origin pro 2015 software.

hIAPP = biological target: T2, hIAPP (Homo sapiens, UniProt P10997); assay: CD spectroscopy of hIAPP aggregated with the tested molecules; details: hIAPP:compound 1:5
T2 construct: hIAPP is a 37-amino acid neuroendocrine peptide hormone; purchased Peptide 2.0 (USA)
T2 sequence (P10997 34-70 limits assumed): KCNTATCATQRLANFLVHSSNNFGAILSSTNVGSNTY
Experimental: CD analysis was performed also for hIAPP (Fig. 2f and Supplementary Fig. 5). […] With different degrees of effectiveness, the presence of all tested hybrid molecules caused a reduction of the intensity of the CD signal, indicating an overall lower of β-sheet content of hIAPP (Fig. 2f and Supplementary Fig. 5).
as §1

NC(Cc1c[nH]c2ccccc12)C(=O)NC(Cc1c[nH]c2ccccc12)C(=O)O (stereo not shown) [WW]
Normalized CD spectra ([1]; wave length 213.50): -554935.80
Normalized CD spectra ([1]; wave length 214.00): -554928.93
Normalized CD spectra ([1]; wave length 214.50): -552085.14
Normalized CD spectra ([1]; wave length 215.00): -546818.62
Normalized CD spectra ([1]; wave length 215.50): -538803.90
Normalized CD spectra ([1]; wave length 216.00): -527793.91
Normalized CD spectra ([1]; wave length 216.50): -515067.58
Normalized CD spectra ([1]; wave length 217.00): -500037.64
Normalized CD spectra ([1]; wave length 217.50): -483420.09
Normalized CD spectra ([1]; wave length 218.00): -466017.17
Normalized CD spectra ([1]; wave length 218.50): -449741.45
Normalized CD spectra ([1]; wave length 219.00): -435025.94
Normalized CD spectra ([1]; wave length 219.50): -421417.88
Normalized CD spectra ([1]; wave length 220.00): -409259.40
Normalized CD spectra ([1]; wave length 220.50): -400153.72
Normalized CD spectra ([1]; wave length 221.00): -392999.00
Normalized CD spectra ([1]; wave length 221.50): -387283.08
Normalized CD spectra ([1]; wave length 222.00): -384427.10
Normalized CD spectra ([1]; wave length 222.50): -381378.29
Normalized CD spectra ([1]; wave length 223.00): -378482.47
Normalized CD spectra ([1]; wave length 223.50): -375123.31
Normalized CD spectra ([1]; wave length 224.00): -370804.14
Normalized CD spectra ([1]; wave length 224.50): -364567.94
Normalized CD spectra ([1]; wave length 225.00): -356446.10
Normalized CD spectra ([1]; wave length 225.50): -347013.66
Normalized CD spectra ([1]; wave length 226.00): -335572.40
Normalized CD spectra ([1]; wave length 226.50): -322606.15
Normalized CD spectra ([1]; wave length 227.00): -307876.71
Normalized CD spectra ([1]; wave length 227.50): -292058.28
Normalized CD spectra ([1]; wave length 228.00): -275601.46
Normalized CD spectra ([1]; wave length 228.50): -259320.67
Normalized CD spectra ([1]; wave length 229.00): -242881.21
Normalized CD spectra ([1]; wave length 229.50): -227084.08
Normalized CD spectra ([1]; wave length 230.00): -211838.78
Normalized CD spectra ([1]; wave length 230.50): -197375.75
Normalized CD spectra ([1]; wave length 231.00): -183337.85
Normalized CD spectra ([1]; wave length 231.50): -170797.00
Normalized CD spectra ([1]; wave length 258.50): 17161.52
Normalized CD spectra ([1]; wave length 259.00): 7899.34
Normalized CD spectra ([1]; wave length 259.50): -2300.94
Normalized CD spectra ([1]; wave length 260.00): -13439.31
Normalized CD spectra (hIAPP; wavelength 190): 343795.67
Normalized CD spectra (hIAPP; wavelength 191): 354468.38
Normalized CD spectra (hIAPP; wavelength 192): 358374.14
Normalized CD spectra (hIAPP; wavelength 193): 355512.94
Normalized CD spectra (hIAPP; wavelength 194): 345884.79
Normalized CD spectra (hIAPP; wavelength 195): 329489.69
Normalized CD spectra (hIAPP; wavelength 196): 306327.63
Normalized CD spectra (hIAPP; wavelength 197): 276398.63
Normalized CD spectra (hIAPP; wavelength 198): 239702.66
Normalized CD spectra (hIAPP; wavelength 199): 196239.75
Normalized CD spectra (hIAPP; wavelength 200): 146009.88
Normalized CD spectra (hIAPP; wavelength 201): 61754.89
Normalized CD spectra (hIAPP; wavelength 202): -24817.98
Normalized CD spectra (hIAPP; wavelength 203): -104541.82
Normalized CD spectra (hIAPP; wavelength 204): -194140.70
Normalized CD spectra (hIAPP; wavelength 205): -282362.40
Normalized CD spectra (hIAPP; wavelength 206): -361218.83
Normalized CD spectra (hIAPP; wavelength 207): -426532.70
Normalized CD spectra (hIAPP; wavelength 208): -491650.06
Normalized CD spectra (hIAPP; wavelength 209): -544493.52
Normalized CD spectra (hIAPP; wavelength 210): -578332.01
Normalized CD spectra (hIAPP; wavelength 211): -600611.91
Normalized CD spectra (hIAPP; wavelength 212): -633105.12
Normalized CD spectra (hIAPP; wavelength 213): -643037.98
Normalized CD spectra (hIAPP; wavelength 214): -652192.85
Normalized CD spectra (hIAPP; wavelength 215): -643438.51
Normalized CD spectra (hIAPP; wavelength 216): -628952.36
Normalized CD spectra (hIAPP; wavelength 217): -616708.30
Normalized CD spectra (hIAPP; wavelength 218): -606924.95
Normalized CD spectra (hIAPP; wavelength 219): -588274.82
Normalized CD spectra (hIAPP; wavelength 220): -575696.26
Normalized CD spectra (hIAPP; wavelength 221): -554154.00
Normalized CD spectra (hIAPP; wavelength 222): -531569.83
Normalized CD spectra (hIAPP; wavelength 223): -512246.07
Normalized CD spectra (hIAPP; wavelength 224): -497205.78
Normalized CD spectra (hIAPP; wavelength 225): -475158.84
Normalized CD spectra (hIAPP; wavelength 226): -452118.88
Normalized CD spectra (hIAPP; wavelength 227): -428570.58
Normalized CD spectra (hIAPP; wavelength 228): -410402.58
Normalized CD spectra (hIAPP; wavelength 229): -383596.51
Normalized CD spectra (hIAPP; wavelength 230): -367255.25
Normalized CD spectra (hIAPP; wavelength 231): -339300.49
Normalized CD spectra (hIAPP; wavelength 232): -313212.22
Normalized CD spectra (hIAPP; wavelength 233): -285392.48
Normalized CD spectra (hIAPP; wavelength 234): -267953.82
Normalized CD spectra (hIAPP; wavelength 235): -242526.22
Normalized CD spectra (hIAPP; wavelength 236): -211308.56
Normalized CD spectra (hIAPP; wavelength 237): -193934.06
Normalized CD spectra (hIAPP; wavelength 238): -169811.04
Normalized CD spectra (hIAPP; wavelength 239): -150960.21
Normalized CD spectra (hIAPP; wavelength 240): -133346.35
Normalized CD spectra (hIAPP; wavelength 241): -121501.30
Normalized CD spectra (hIAPP; wavelength 242): -102197.51
Normalized CD spectra (hIAPP; wavelength 243): -87761.88
Normalized CD spectra (hIAPP; wavelength 244): -83414.73
Normalized CD spectra (hIAPP; wavelength 245): -75886.31
Normalized CD spectra (hIAPP; wavelength 246): -70034.99
Normalized CD spectra (hIAPP; wavelength 247): -69696.95
Normalized CD spectra (hIAPP; wavelength 248): -72964.86
Normalized CD spectra (hIAPP; wavelength 249): -68003.48
Normalized CD spectra (hIAPP; wavelength 250): -71617.98
Normalized CD spectra (hIAPP; wavelength 251): -69597.08
Normalized CD spectra (hIAPP; wavelength 252): -67483.10
Normalized CD spectra (hIAPP; wavelength 253): -65276.04
Normalized CD spectra (hIAPP; wavelength 254): -62975.90
Normalized CD spectra (hIAPP; wavelength 255): -60582.67
Normalized CD spectra (hIAPP; wavelength 256): -58096.36
Normalized CD spectra (hIAPP; wavelength 257): -55516.97
Normalized CD spectra (hIAPP; wavelength 258): -52844.50
Normalized CD spectra (hIAPP; wavelength 259): -50078.94
Normalized CD spectra (hIAPP; wavelength 260): -47220.30
